Assay results published in patent publication US7521477B2, “Vitamin C derivatives with peptide, preparation method thereof and composition comprising the same” (Peptron Co., Ltd., priority 2003, dated 2009).
Some results were stated once for a whole list of compounds, not compound by compound.

Experiment: Antioxidant effect, DPPH free radical scavenging
Settings: concentration of 100 μM, FIG. 4

With NCCCCC(NC(=O)C(Cc1cnc[nH]1)NC(=O)CNC(=O)CCC(=O)OCC(O)C1OC(=O)C(O)=C1O)C(=O)O (stereo not shown) [II-1, 6-(succinyl-glycyl-histidyl-lysine)ascorbic acid] the “Ability to scavenge the free radical” value was ≥ 70%.
